For at least one compound, name, drawing or mass did not settle the structure. Numbered stars: 1 amine (or outer) side, 2 acyl side, 3 side chain; on linkers, the order of the positions; unused ones are H or OH. Side chains are listed from the residue outwards. Peptide text beside a SMILES is read from it. * marks the point of attachment. Decanoyl(10-(4-HOOC-PhO)) = O=C(O)c1ccc(OCCCCCCCCCC(=O)*)cc1; γGlu = O=C(O)[C@H](CCC(=O)[*:2])N[*:1]; AEEA = NCCOCCOCC(=O)O
Assays:
human GLP-1 receptor [1] = molecular target: T1, human GLP-1 receptor (Homo sapiens, UniProt P43220); experiment: GLP-1 receptor binding, SPA displacement of 125I-GLP-1, low albumin; details: read-out: Receptor binding Low albumin (IC50/nM), low albumin (0.005% HSA)
T1 construct: expressed in transfected cells; host or cells: BHK cells, clone FCW467-12A (parent line BHKTS13), membranes
Protocol: The purpose of this experiment is to test the receptor binding activity of the GLP-1 parent drugs of the prodrugs of the invention. The receptor binding is a measure of affinity of a parent drug for the human GLP-1 receptor. The parent GLP-1 drugs of Examples B2.1, B2.2, B2.3, B2.4, and B2.5 were tested as described below.
The receptor binding of the GLP-1 drugs to the human GLP-1 receptor was measured in a competitive binding assay. In this type of assay a labelled ligand (in this case ^125I-GLP-1) is bound to the receptor. Each drug is added in a series of concentrations to isolated membranes containing the human GLP-1 receptor and displacement of the labelled ligand is monitored. The receptor binding is reported as the concentration at which half of the labelled ligand is displaced from the receptor, the IC50 value.
In order to test the binding of the drugs to the receptor in the presence of albumin, the assay may be performed in a very low concentration of serum albumin (preferably max 0.001% final assay concentration (alternatively 0.005%—corresponding to the residual amount thereof in the tracer), as well as in the presence of a considerably higher concentration of serum albumin (2.0% final assay concentration). An increase of the IC50 value in the presence of serum albumin indicates an affinity to serum albumin and represents a method to predict a protracted pharmacokinetic profile of the test substance in animal models. […]
The cells were grown at 5% CO2 in DMEM, 10% fetal calf serum, 1% Pen/Strep (Penicillin/Streptomycin) and 1.0 mg/ml of the selection marker G418. […] The resulting pellet was re-suspended in buffer 2 and the protein concentration was determined. […]

Protein sequences, listed by entry. Tags and fused reporters are not part of them. Residues count along the entry.
UniProt P43220, 24-463: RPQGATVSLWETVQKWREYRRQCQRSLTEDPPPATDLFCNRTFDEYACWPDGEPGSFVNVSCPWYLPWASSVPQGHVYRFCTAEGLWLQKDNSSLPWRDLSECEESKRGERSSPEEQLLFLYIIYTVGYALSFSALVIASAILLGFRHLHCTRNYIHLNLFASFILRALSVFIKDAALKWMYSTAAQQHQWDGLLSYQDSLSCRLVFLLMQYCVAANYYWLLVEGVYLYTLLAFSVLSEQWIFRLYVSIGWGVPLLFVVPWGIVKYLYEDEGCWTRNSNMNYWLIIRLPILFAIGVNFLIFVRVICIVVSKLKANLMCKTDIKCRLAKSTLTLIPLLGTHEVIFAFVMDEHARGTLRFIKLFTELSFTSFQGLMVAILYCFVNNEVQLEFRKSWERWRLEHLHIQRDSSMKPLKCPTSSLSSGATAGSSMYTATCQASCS

human GLP-1 receptor [2] = molecular target: T1, human GLP-1 receptor; experiment: In vitro potency, AlphaScreen cAMP assay on membranes; assay type: biochemical; details: cAMP formation, membranes of BHK467-12A cells
Protocol: The purpose of this example is to test the activity, or potency, in vitro of, for example, the GLP-1 parent drugs of the prodrugs of the invention.
Purified plasma membranes from a stable transfected cell line, BHK467-12A (tk-ts13), expressing the human GLP-1 receptor were stimulated with the GLP-1 drug in question, and the potency of cAMP production was measured using the AlphaScreen™ cAMP Assay Kit from Perkin Elmer Life Sciences. The basic principle of The AlphaScreen Assay is a competition between endogenous cAMP and exogenously added biotin-cAMP. The capture of cAMP is achieved by using a specific antibody conjugated to acceptor beads.
A stable transfected cell line and a high expressing clone were selected for screening. The cells were grown at 5% CO2 in DMEM, 10% FCS, 1% Pen/Strep (Penicillin/Streptomycin) and preferably 0.5 (alternatively 1.0 mg/ml) of the selection marker G418.
Cells at approximate 80% confluence were washed twice with PBS and harvested with Versene (aqueous solution of the tetrasodium salt of ethylenediaminetetraacetic acid), centrifuged 5 min at 1000 rpm and the supernatant removed. The additional steps were all made on ice. The cell pellet was homogenised by the Ultrathurax for 20-30 s in 10 ml of Buffer 1 (20 mM Na-HEPES, 10 mM EDTA, pH=7.4), centrifuged 15 min at 20,000 rpm and the pellet resuspended in 10 ml of Buffer 2 (20 mM Na-HEPES, 0.1 mM EDTA, pH=7.4). The suspension was homogenised for 20-30 s and centrifuged 15 min at 20,000 rpm. Suspension in Buffer 2, homogenisation and centrifugation was repeated once and the membranes were resuspended in Buffer 2. The protein concentration was determined and the membranes stored at −80° C. until use.
The assay was performed in flat-bottom 96-well plates (Costar cat. no: 3693). The final volume per well was 50 μl.
AlphaScreen cAMP Assay Kit from Perkin Elmer Life Sciences (cat. No: 6760625M); containing Anti-cAMP Acceptor beads (10 U/μl), Streptavidin Donor beads (10 U/μl) and Biotinylated-cAMP (133 U/μl). […]

`CC[C@H](C)[C@H](NC(=O)[C@H](Cc1ccccc1)NC(=O)[C@H](CCC(=O)O)NC(=O)[C@H](CCCCNC(=O)COCCOCCNC(=O)COCCOCCNC(=O)CC[C@H](NC(=O)CCCCCCCCCOc1ccc(C(=O)O)cc1)C(=O)O)NC(=O)[C@H](C)NC(=O)[C@H](C)NC(=O)[C@H](CCC(N)=O)NC(=O)[C@H](CCC(=O)O)NC(=O)[C@H](CCC(=O)O)NC(=O)[C@H](CC(C)C)NC(=O)[C@H](Cc1ccc(O)cc1)NC(=O)[C@H](CCCCNC(=O)COCCOCCNC(=O)COCCOCCNC(=O)CC[C@H](NC(=O)CCCCCCCCCOc1ccc(C(=O)O)cc1)C(=O)O)NC(=O)[C@H](CO)NC(=O)[C@@H](NC(=O)[C@H](CC(=O)O)NC(=O)[C@H](CO)NC(=O)[C@@H](NC(=O)[C@H](Cc1ccccc1)NC(=O)[C@@H](NC(=O)CNC(=O)[C@H](CCC(=O)O)NC(=O)[C@H](C)NC(=O)[C@@H](N)Cc1c[nH]cn1)[C@@H](C)O)[C@@H](C)O)C(C)C)C(=O)N[C@@H](C)C(=O)N[C@@H](Cc1c[nH]c2ccccc12)C(=O)N[C@@H](CC(C)C)C(=O)N[C@H](C(=O)N[C@@H](CCC(N)=O)C(=O)NCC(=O)N[C@@H](CCCNC(=N)N)C(=O)NCC(=O)O)C(C)C` [reference compound] (H-HAEGTFTSDVSK([AEEA-AEEA-γGlu-Decanoyl(10-(4-HOOC-PhO))])YLEEQAAK([AEEA-AEEA-γGlu-Decanoyl(10-(4-HOOC-PhO))])EFIAWLVQGRG-OH; C-terminus assumed) was tested, and the IC50 (human GLP-1 receptor [1]) was 0.68 nM and the EC50 (human GLP-1 receptor [2]) was 50 pM.
`CC[C@H](C)[C@H](NC(=O)[C@H](Cc1ccccc1)NC(=O)[C@H](CCC(=O)O)NC(=O)[C@H](CCCCNC(=O)COCCOCCNC(=O)COCCOCCNC(=O)CC[C@H](NC(=O)CCCCCCCCCOc1ccc(C(=O)O)cc1)C(=O)O)NC(=O)[C@H](C)NC(=O)[C@H](C)NC(=O)[C@H](CCC(N)=O)NC(=O)CNC(=O)[C@H](CCC(=O)O)NC(=O)[C@H](CC(C)C)NC(=O)[C@H](Cc1ccc(O)cc1)NC(=O)[C@H](CO)NC(=O)[C@H](CO)NC(=O)[C@@H](NC(=O)[C@H](CC(=O)O)NC(=O)[C@H](CO)NC(=O)[C@@H](NC(=O)[C@H](Cc1ccccc1)NC(=O)[C@@H](NC(=O)CNC(=O)[C@H](CCC(=O)O)NC(=O)[C@H](C)NC(=O)[C@@H](N)Cc1c[nH]cn1)[C@@H](C)O)[C@@H](C)O)C(C)C)C(=O)N[C@@H](C)C(=O)N[C@@H](Cc1c[nH]c2ccccc12)C(=O)N[C@@H](CC(C)C)C(=O)N[C@H](C(=O)N[C@@H](CCCNC(=N)N)C(=O)NCC(=O)N[C@@H](CCCNC(=N)N)C(=O)N[C@@H](CCCCNC(=O)COCCOCCNC(=O)COCCOCCNC(=O)CC[C@H](NC(=O)CCCCCCCCCOc1ccc(C(=O)O)cc1)C(=O)O)C(=O)O)C(C)C` [reference compound] was tested, and the IC50 (human GLP-1 receptor [1]) was 1.9 nM and the EC50 (human GLP-1 receptor [2]) was 180 pM.
